Measured values reported in ChEMBL document CHEMBL4715815, “Design, synthesis and biological evaluation of 7H-pyrrolo[2,3-d]pyrimidin-4-amine derivatives as selective Btk inhibitors with improved pharmacokinetic properties for the treatment of rheumatoid arthritis” (Eur J Med Chem, 2018).
≈ marks a conversion by molar mass, not a printed value.

Experiment: Aqueous solubility of compound at 1 mg
Conditions: buffer

## C=CC(=O)N1CCC(Cn2cc(-c3ccc4c(c3)OCO4)c3c(N)ncnc32)CC1
  solubility: 100 µg/mL (≈ 247 µM)
